This note sets out measurements from US20100227400A1 (published 2010).

No constants are given. Whether binding was seen depends on the method and setting. Some entries that bind do so weakly or less than the wild type. Sequences can lack the tags named with a protein.

This test addresses DsRed K83R, polyhistidine-tagged. In words: SDS-PAGE without heating, self-association.

B1: DsRed K83R, polyhistidine-tagged (protein)
chain: MRGSHHHHHHGMASMTGGQQMGRDLYDDDDKDPMRSSKNVIKEFMRFKVRMEGTVNGHEFEIEGEGEGRPYEGHNTVKLKVTKGGPLPFAWDILSPQFQYGSKVYVKHPADIPDYRKLSFPEGFKWERVMNFEDGGVVTVTQDSSLQDGCFIYKVKFIGVNFPSDGPVMQKKTMGWEASTERLYPRDGVLKGEIHKALKLKDGGHYLVEFKSIYMAKKPVQLPGYYYVDSKLDITSHNEDYTIVEQYERTEGRHHLFL
Consider B1, for which the binding entry is “binds”.
